Experimental data: PubChem BioAssay AID1224826 (NIAID, 2016)
Here is a random part of about 17,000 reagents tested. About 1,110 of them (6.6%) count as active. 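Active means lowered or raised reporter signal; replicate intensities are raw and not normalised per plate.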 Further read-outs or replicates are left out here.

Assay: 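Regulators of Tlr4 signalling leading to Tnf-alpha expression in macrophages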 (primary screen)
Cells: RAW264.7 G9 macrophages from mouse bearing reporters for p65 (GFP) and the Tnf promoter (mCherry)
Knock-down reagent: siRNA pool against mouse genes, 100 nM
Duration: 16 h of LPS stimulation, after 2 days of siRNA transfection
Conditions: bacterial lipopolysaccharide (Salmonella minnesota R595), 10 ng/ml
Measurement: 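Nuclear mCherry signal of the Tnf promoter reporter measured by imaging after background removal, scaled to each plate median and turned into robust z-scores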
Scale: Tnf reporter robust z-score: higher = stronger Tnf promoter reporter signal after LPS
Rule for the call: 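a well counts as active at a score of -1.3 or below (Tlr4 knock-down control median) or above 3 (raised signal); controls and wells holding fewer than 50 cells are excluded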
Calls: active = Tnf reporter clearly lowered or raised; inactive = no clear change in Tnf reporter

Klra19 (killer cell lectin-like receptor, subfamily A, member 19) gave Tnf reporter robust z-score 0.38; fewer than 50 cells in well enough cells in well; inactive. After knock-down of Ret (ret proto-oncogene), the screen gave Tnf reporter robust z-score -0.58; fewer than 50 cells in well enough cells in well; inactive. Abce1 (ATP-binding cassette, sub-family E member 1) gave Tnf reporter robust z-score -0.46; fewer than 50 cells in well enough cells in well; inactive. After knock-down of Spata17 (spermatogenesis associated 17) the results were fewer than 50 cells in well fewer than 50 cells per well; well left out of calls; inactive.

Copied from above, 2 entries:
Ret (ret proto-oncogene) | Tnf reporter robust z-score = -0.58; fewer than 50 cells in well = enough cells in well; activity call = inactive
Abce1 (ATP-binding cassette, sub-family E member 1) | Tnf reporter robust z-score = -0.46; fewer than 50 cells in well = enough cells in well; activity call = inactive

More records follow.
With knock-down of Ube2r2 (ubiquitin-conjugating enzyme E2R 2), the screen gave Tnf reporter robust z-score 0.79; fewer than 50 cells in well enough cells in well; inactive. Dbnl (drebrin-like) scored Tnf reporter robust z-score -1.44; fewer than 50 cells in well enough cells in well; active. Against Pphln1 (periphilin 1) the deposit lists fewer than 50 cells in well fewer than 50 cells per well; well left out of calls; inactive. For Fem1b (fem 1 homolog b), the entry reads Tnf reporter robust z-score 0.94; fewer than 50 cells in well enough cells in well; inactive. Cflar (CASP8 and FADD-like apoptosis regulator) gave fewer than 50 cells in well fewer than 50 cells per well; well left out of calls; inactive. Hoxb7 (homeobox B7) gave Tnf reporter robust z-score 0.66; fewer than 50 cells in well enough cells in well; inactive.

Aldob (aldolase B, fructose-bisphosphate) gave fewer than 50 cells in well fewer than 50 cells per well; well left out of calls; inactive. Zcchc17 (zinc finger, CCHC domain containing 17) showed Tnf reporter robust z-score 0.76; fewer than 50 cells in well enough cells in well; inactive. Knock-down of Tada1 (transcriptional adaptor 1) gave: Tnf reporter robust z-score -0.07; fewer than 50 cells in well enough cells in well; inactive. Against Sccpdh (saccharopine dehydrogenase (putative)) the deposit lists Tnf reporter robust z-score -0.89; fewer than 50 cells in well enough cells in well; inactive.
